Data as given in patent publication US20050037446A1, “Agents that recognize src when phosphorylated at serine 17” (priority 2001, published 2005).
At least one structure is not confirmed: it was looked up by name or label, or the drawing left a doubt.

Experiments:
Rap1 [1] = experiment: Rap1 activation assay in Src++ and SYF fibroblasts; type: cell-based, mouse
Procedure: The Rap1 activation affinity assay was performed as follows. A GST fusion protein of the Rap1-binding domain of RalGDS (GST-RalGDS, Dr. Bos, Utrecht University, The Netherlands) was expressed in E. coli following induction by isopropyl-1thio-β-D-galactopyranoside. Active Rap1 was isolated as previously described (Franke et al., EMBO J. 16:252-9, 1997). Briefly, equivalent amounts of supernatants (500 μg) were incubated with GST-RalGDS-Rap1 binding domain coupled to glutathione beads. Following a one hour incubation at 4° C., beads were pelleted and rinsed threes times with ice-cold lysis buffer. The protein was eluted from the beads using 2× Laemmli buffer and applied to a 12% SDS-polyacrylamide gel. […] Proteins were detected using enhanced chemiluminescence. […]
Following selection, SYF cells were left untreated or stimulated with Forskolin in the presence or absence of H89 or PP2. Cells were lysed in ice-cold lysis buffer and the lysates analyzed by Western blot for phosphorylation of myc-ERK2 as described above. […]
SYF cells were co-transfected with Flag-Rap1 and either vector, Flag-Src, or Flag-SrcS 17A and stimulated with Forskolin as described in the above examples. Cell lysates were examined for Rap1 activation using the method described in EXAMPLE 1 or analyzed by Western blot to identify Flag-containing proteins. […]

Rap1 [2] = experiment: Rap1 activation affinity assay (GST-RalGDS pull-down), NIH3T3 cells; type: cell-based; settings: 10 μM, five minutes
Procedure: NIH3T3 cells (American Type Culture Collection, ATCC, Manassas, Va.) were cultured in Dulbecco-Modified Eagle Medium (DMEM) plus 10% fetal calf serum, penicillin/streptomycin, and L-glutamine at 37° C. in 5% CO2. Cells were maintained in serum-free DMEM for 16 hours at 37° C. in 5% CO2 prior to treatment. NIH3T3 cells were trasfected with Flag-Rap1 (see Vossler et al., Cell, 89:73-82, 1997) or stimulated with Forskolin (10 μM, Cal Biochem, Riverside, Calif.) for five minutes. Forskolin treated cells received either a pretreatment or post-treatment with 10 μM N-[2(Bromocimamylamino) ethyl]-5-isoquinolinesulfonamide (H89) (Cal Biochem, Riverside, Calif.) for 20 minutes. […]
After treatment, cells were lysed in ice-cold lysis buffer (50 mM Tris-HCL (pH 8.0), 10% glycerol, 1% nonidet P40, 200 mM NaCl, 2.5 mM MgCl2, 1 mM phenylmethylsulfonyl fluoride, 1 μM leupeptin, 10 μln soybean trypsin inhibitor, 10 mM NaF, 0.1 μM aprotinin, and 1 mM NaVO4). […] Aliquots of the membrane fraction were analyzed for the presence of C3G by Western blotting. […] The mixture was incubated at 37° C. for five minutes and equal amounts of lysate were analyzed using the Rap1 activation assay to monitor Flag-Rap 1 activation by Gst-RalGDS.
The Rap1 activation affinity assay was performed as follows. […] Proteins were detected using enhanced chemiluminescence.

ERK1/2 = experiment: ERK phosphorylation in Src++ and SYF fibroblasts; type: cell-based, mouse

C=C[C@@]1(C)CC(=O)[C@]2(O)[C@@]3(C)[C@@H](O)CCC(C)(C)[C@@H]3[C@H](O)[C@H](OC(C)=O)[C@@]2(C)O1 [Forskolin]
Rap1 activation by agonist (Rap1 [1]; SYF cells): did not activate Rap1 | Rap1 activation by agonist (Rap1 [1]; Src++ cells): robustly activated Rap1 | Activation of Flag-Rap1 in trans by lysates from treated cells (Rap1 [2]): retained the ability to activate Flag-Rap1 | Effect on PDGF-mediated ERK activation (ERK1/2; SYF cells): but not in SYF cells | Effect on PDGF-mediated ERK activation (ERK1/2; Src++ cells): inhibited PDGF-mediated ERK activation
